68 sequences from PubChem BioAssay AID1347426 (Functional Genomics Laboratory (NCATS/FGL), 2020) can be followed below.

Hit rate of the full screen: of about 31,000 sequences, about 1,400 (4.5%) were called active.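 How the source made its calls: active means median seed-adjusted z-score above 1 or below -1; inactive means the rest.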 The list shows a part of the results.

This experiment is described as follows: Novel Modifiers of Survival Motor Neuron (SMN) Protein: Gene Identification via Genome-wide siRNA Screen. The conditions noted are these: HEK293T SMN2-luciferase reporter, siRNA knockdown, 72 h; actives lie on both sides. In outline: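 Each of three siRNAs per gene is reverse-transfected (1 pmol) into reporter HEK293T cells whose luciferase output tracks SMN protein level. After 72 h culture, ONE-Glo luminescence is control-normalized, log10-transformed and MAD-standardized; Common Seed Analysis deprioritizes seed-driven hits.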
In general terms: Reporter assays use an easily measured gene product as a stand-in for the process of interest.
For CGAGGUUUUGGAUUUAUUATT against DAZAP1, the median seed-adjusted z-score is inactive: 0.
Under CACCUGUCCUGACGAUUAATT against EPHA3 stands inactive: 0; under AUUCAGAACUCGCUGCUGATT against ITGB1BP3, inactive: 0.0514; under CAACUACCCUUUCUCAACATT against PRSS23, inactive: -0.77.
Under CGGUUUAAGUCUAUCCAUUTT against RFNG stands inactive: 0.
Under CCAGGCUAAUGAUAUUGGATT against AKAP12 stands inactive: -0.104; under CUGCAGUGCUGAUAAGGAUTT against PRMT2, inactive: 0.0895; under CCACGAAGGGAGAACAGUUTT against CTCFL, inactive: -0.362.
Turning to ACAGGAUUCCAGAAAUGGATT against REG1A, the median seed-adjusted z-score was inactive: 0.596.
Under CUGCCGCUAUGAACCACAATT against P2RX6 stands inactive: -0.351.
CAAGGUCACUAUGAAGACATT against BPIL3: the median seed-adjusted z-score is inactive: -0.0506.
Take CAAGGAAUUUUUGACAAUUTT against CD244: the median seed-adjusted z-score was inactive: 0.
As for GGAUGAACUUUGGUGCGUUTT against TARDBP, the median seed-adjusted z-score was inactive: 0.987.
Regarding GAAAUUGCAUUUCAGCAAATT against ZP2, the median seed-adjusted z-score was inactive: 0.0455.
The same measure for UGUGCUCAUGGUUCACAAATT against IKZF1: inactive: -0.298.
For the sequence CAACAGUUCCCGAGACUGATT against ZNF777, the median seed-adjusted z-score is inactive: 0.128.
As for AACGAAAUCUUGAAAAGCATT against HAND2, the median seed-adjusted z-score is inactive: 0.0864.
Under ACAUGAACGCGGCCAAUGUTT against MIF stands inactive: 0.214; under AGAUAAAAGUUGACAGUGATT against ATRX, inactive: -0.158.
The same measure for CACUGACAUUGUGGUGUUATT against HDDC3: inactive: 0.549; for GGACUGCGUUGGUGAUGUATT against THBS1: inactive: -0.847.
Under CAUCUUUUCUAGUUGAAAUTT against AK3L1 stands inactive: 0.0337; under CAUUACACCUAACCAACAATT against GCNT3, inactive: 0.
As for CCGCGAAUCCAUGACAAUATT against UGCG, the median seed-adjusted z-score was inactive: 0.492.
Under GGUUCAUGUUUGCAAUCUUTT against POLR2B stands active: -4.81.
The same measure for GCACCUCACCCAUCAAUGATT against RERE: inactive: 0.129; for CACCAUUGAUCAGUCAGAATT against TOX4: inactive: 0; for CCAGGAGUUUAACCUAGAGTT against GH1: inactive: -0.394.
With CCUUAGAUAUUGUAUGGGATT against EFCAB6, the median seed-adjusted z-score was inactive: 0.206.
The same measure for GGCCUAAGCUAAAUCGAGATT against SKP2: inactive: -0.126; for CAGAAGUUUUCACACCUAATT against ZNF141: inactive: 0.223; for GCAACAUUUUGGGACUUGATT against TP53I3: inactive: 0.244.
As for GCUGGAUCAUUCAAGCGCATT against CUBN, the median seed-adjusted z-score is inactive: 0.0558.
Under GCUCCCUCAUCAACGAACATT against PRSS1 stands inactive: -0.0208; under GACGCGAUGUUCCCACUUATT against PDE9A, inactive: 0.708.
As for CCUUAUAUCUCUACCCGUUTT against STXBP1, the median seed-adjusted z-score was inactive: -0.0496.
GGACCUGCUUGAAUAUGGATT against GLRX2: the median seed-adjusted z-score was inactive: -0.244.
Under GGCUUUCAGUUAUUAUGGUTT against SFRS7 stands inactive: 0.44; under ACGCAAUCGUCGCAAACAATT against GTPBP5, inactive: 0.0354.
On to GCUCAGUCUCUACUCUCAATT against MKL2, for which the median seed-adjusted z-score is inactive: -0.863.
Under CCGAUACGCGAGCCACUAATT against PSMB10 stands inactive: 0.00939; under GAGGCAGUCUUAGAGGAAATT against SPATA21, active: -1.03.
Take UCACGUCACUACUUAAAAATT against ZNF644: the median seed-adjusted z-score was inactive: 0.389.
Under CAAGCCCGUUUAAUAGUCATT against KIF14 stands inactive: 0.
With GACCCAUACAGAAAGUAGATT against SSR1, the median seed-adjusted z-score is inactive: -0.434.
Take AGACAUACAGUGUAGACAATT against ALPPL2: the median seed-adjusted z-score is inactive: 0.331.
Regarding GAGUAGGACAUAUCAGUAATT against GALNTL5, the median seed-adjusted z-score was inactive: -0.363.
Under CAGUUGCCUAUAUCCUAUATT against TDRKH stands inactive: -0.434; under CAGGUGAUGGUGUUCGAUATT against ZFYVE27, inactive: 0.0439.
As for CCUGGAUUAUGAGCUCCUATT against CARD14, the median seed-adjusted z-score was inactive: -0.104.
With GUGACACGCAUGAUCCUCATT against GALR2, the median seed-adjusted z-score was inactive: -0.0832.
Consider CGUUAUUGAUCCGAAUGAATT against LRRC4C, for which the median seed-adjusted z-score was inactive: -0.122.
CACCUCACCUUACAUCAAATT against ZNF133: the median seed-adjusted z-score was inactive: -0.199.
Take CAGUGUUAUUAGGUAUAAATT against UCP1: the median seed-adjusted z-score is inactive: -0.0744.
Under AAGUGAUUAUUACCCUGAATT against CXCL11 stands inactive: -0.135.
For the sequence CUGCCGGAAUGGUUCUUUATT against GPR151, the median seed-adjusted z-score is inactive: -0.263.
For GAAUACUUCAAAUUCGAAUTT against LEPR, the median seed-adjusted z-score was inactive: -0.184.
Under UCACAGAGUCGUUCACGGATT against RAB40B stands inactive: -0.31; under GAACAUCAGGUAUAGAACATT against SULT1B1, inactive: -0.115.
Take GAGUGAGAAUUACUAUGAATT against PCDHGC4: the median seed-adjusted z-score is inactive: 0.301.
GGCUGACCUGUACCACUUUTT against SH3BP1: the median seed-adjusted z-score is inactive: -0.225.
For CAAAACCGAUGGUCAAGUUTT against VCAN, the median seed-adjusted z-score was inactive: 0.0927.
Take GCACUGGAGAUAGACCCGATT against KRT82: the median seed-adjusted z-score is inactive: 0.129.
Take CACCUCACAUGAUAAGAGATT against RAPGEF4: the median seed-adjusted z-score is inactive: -0.197.
Under UCACUGAAAUGAAACUGGUTT against ACBD4 stands inactive: -0.363; under GCUGCUUUCUGGACCCGAATT against PRSS36, inactive: 0.589.
Under CAUGCAACAUAACCUGAUATT against BRCA1 stands inactive: -0.0302; under AGAUCCACCUCAAGCAAAATT against EGR3, inactive: -0.232.
